No constants are given. Whether binding was seen depends on the method and setting. Some results given as binding are weak or reduced against the parent protein; the word gives no strength.
Biological target: Aminopeptidase A (APA, EC 3.4.11.7) (UniProt Q07075)
Test: phage binding to APA immunocaptured on RC38-coated microwells (not shown)

Chains of the proteins cited; added tags and fusions are not shown.
UniProt Q07075: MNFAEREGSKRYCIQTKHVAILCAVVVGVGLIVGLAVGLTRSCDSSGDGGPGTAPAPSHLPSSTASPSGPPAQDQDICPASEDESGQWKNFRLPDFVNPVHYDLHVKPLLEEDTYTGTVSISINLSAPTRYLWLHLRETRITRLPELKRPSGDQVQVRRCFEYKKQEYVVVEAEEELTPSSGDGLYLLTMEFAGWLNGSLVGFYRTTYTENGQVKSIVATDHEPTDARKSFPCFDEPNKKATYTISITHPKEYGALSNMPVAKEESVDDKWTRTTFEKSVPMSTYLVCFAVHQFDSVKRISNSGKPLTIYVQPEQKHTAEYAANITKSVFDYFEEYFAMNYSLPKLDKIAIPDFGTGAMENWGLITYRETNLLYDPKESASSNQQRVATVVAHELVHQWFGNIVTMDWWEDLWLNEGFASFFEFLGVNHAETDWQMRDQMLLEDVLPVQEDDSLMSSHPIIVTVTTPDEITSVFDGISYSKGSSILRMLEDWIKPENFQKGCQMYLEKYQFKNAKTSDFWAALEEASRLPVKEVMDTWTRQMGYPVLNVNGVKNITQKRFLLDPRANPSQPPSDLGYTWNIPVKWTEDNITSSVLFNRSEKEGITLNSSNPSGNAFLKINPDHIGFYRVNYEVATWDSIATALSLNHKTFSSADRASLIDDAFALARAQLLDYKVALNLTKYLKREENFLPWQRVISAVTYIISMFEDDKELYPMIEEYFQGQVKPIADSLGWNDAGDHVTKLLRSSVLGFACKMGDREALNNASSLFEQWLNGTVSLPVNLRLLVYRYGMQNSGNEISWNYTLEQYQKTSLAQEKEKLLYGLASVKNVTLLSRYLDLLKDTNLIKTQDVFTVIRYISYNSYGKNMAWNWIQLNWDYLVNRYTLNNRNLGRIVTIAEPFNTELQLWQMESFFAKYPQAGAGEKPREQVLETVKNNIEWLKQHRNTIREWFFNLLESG

CYNLCIRECESICGADGACWTWCADGCSRSC [phage displaying … (SEQ ID NO:58)] was tested, and the binding was “binds”.

In the case of CPKVCPRECESNC [phage displaying … (SEQ ID NO:60)], the binding is reported as “binds”.

With CLGQCASICVNDC [phage displaying … (SEQ ID NO:59)] the binding was “binds”.
